# Data as given in PubChem BioAssay AID1671195 (Yale University, 2021)
# Purpose: 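Genes whose knockdown alters LDL uptake in liver cancer cells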 (primary screen)
# System: human Huh7 hepatoma cells
# Knock-down reagent: siRNA pool against human genes, 18 nM
# Time to read-out: about 2 to 2.5 days of knockdown, then 8 h LDL uptake
# Conditions: DiI-labelled LDL at 30 µg/ml for 8 h, in lipoprotein-deficient serum medium
# Measurement: 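Per-cell DiI-LDL intensity by automated imaging; well means scaled to the plate median and given as a robust z-score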
# Direction: robust z-score: higher = more LDL uptake after knockdown
# Active means: 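a gene counts as active if at least two replicate z-scores exceed ±2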
# Here is one part, drawn at random, of about 22,000 reagents. Over the whole deposit, about 1,510 (6.9%) got an active call. 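Active includes knockdowns raising or lowering LDL uptake; positive z-scores mean more uptake, negative mean less.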 Reagents against one gene are numbered here.
gene symbol,reagent,"robust z-score, replicate 1","robust z-score, replicate 2","robust z-score, replicate 3",Call
LMNTD2 (lamin tail domain containing 2),1,-1.11,-1.08,-1.29,inactive
RPL23AP44 (ribosomal protein L23a pseudogene 44),1,2.57,1.97,2.59,active
LOC283117 (retired record),1,1.73,1.48,1.89,inactive
CYP4F22 (cytochrome P450 family 4 subfamily F member 22),1,-1.25,-1.82,-1.75,inactive
NADSYN1 (NAD synthetase 1),1,-1.08,-0.0938,0.594,inactive
LIPT1 (lipoyltransferase 1),1,-0.0352,-0.177,0.104,inactive
MMP25 (matrix metallopeptidase 25),1,-0.719,-0.668,1.25,inactive
MMP25 (matrix metallopeptidase 25),2,-1.84,-1.26,-1.51,inactive
GNAL (G protein subunit alpha L),1,0.718,0.647,-0.913,inactive
OR1L3 (olfactory receptor family 1 subfamily L member 3),1,-0.729,-1.23,-2.8,inactive
"CENPBD2P (CENPB DNA-binding domains containing 2, pseudogene)",1,-0.933,-0.814,-1.12,inactive
LOC441028 (retired record),1,0.198,1.79,1.3,inactive
TTC34 (tetratricopeptide repeat domain 34),1,2.34,2.18,2.07,active
TTC34 (tetratricopeptide repeat domain 34),2,-0.713,0.54,0.429,inactive

A stretch of the results above, as a working copy:
gene symbol,reagent,"robust z-score, replicate 1","robust z-score, replicate 2","robust z-score, replicate 3",Call
TTC34 (tetratricopeptide repeat domain 34),1,2.34,2.18,2.07,active
TTC34 (tetratricopeptide repeat domain 34),2,-0.713,0.54,0.429,inactive

Continued:
gene symbol,reagent,"robust z-score, replicate 1","robust z-score, replicate 2","robust z-score, replicate 3",Call
HAVCR2 (hepatitis A virus cellular receptor 2),1,1.24,1.1,0.526,inactive
TMPRSS5 (transmembrane serine protease 5),1,0.295,-0.425,0.44,inactive
LOC440680 (retired record),1,-1.16,-1.24,-0.805,inactive
TRIM58 (tripartite motif containing 58),1,4.1,0.947,1.01,inactive
IDH1 (isocitrate dehydrogenase (NADP(+)) 1),1,0.426,-0.344,0.33,inactive
CUL9 (cullin 9),1,-0.0141,0.661,0.274,inactive
QTRT1 (queuine tRNA-ribosyltransferase catalytic subunit 1),1,-0.418,0.187,-0.527,inactive
SLC2A4,1,0.994,0.42,1.8,inactive
DNM3 (dynamin 3),1,0.716,1.23,1.28,inactive
OLFML2A (olfactomedin like 2A),1,0.625,0.337,0.697,inactive
RANBP3L (RAN binding protein 3 like),1,-1.2,-1.35,-1.34,inactive
TMEM18 (transmembrane protein 18),1,0.158,0.276,-0.473,inactive
PRDM15 (PR/SET domain 15),1,0.00188,0.129,0.492,inactive
H2AC21 (H2A clustered histone 21),1,-0.52,-0.636,-0.563,inactive
